Our source for the binding values is patent US20180273617A1 (AstraZeneca / MedImmune, published 2018).

No constants are given. Whether binding was seen depends on the method and setting. Some results given as binding are weak or reduced against the parent protein; the word gives no strength.

One assay has as its target T1, human ASCT2 (SLC1A5) (human, UniProt Q15758 1-541).
T1 sequence (looked up): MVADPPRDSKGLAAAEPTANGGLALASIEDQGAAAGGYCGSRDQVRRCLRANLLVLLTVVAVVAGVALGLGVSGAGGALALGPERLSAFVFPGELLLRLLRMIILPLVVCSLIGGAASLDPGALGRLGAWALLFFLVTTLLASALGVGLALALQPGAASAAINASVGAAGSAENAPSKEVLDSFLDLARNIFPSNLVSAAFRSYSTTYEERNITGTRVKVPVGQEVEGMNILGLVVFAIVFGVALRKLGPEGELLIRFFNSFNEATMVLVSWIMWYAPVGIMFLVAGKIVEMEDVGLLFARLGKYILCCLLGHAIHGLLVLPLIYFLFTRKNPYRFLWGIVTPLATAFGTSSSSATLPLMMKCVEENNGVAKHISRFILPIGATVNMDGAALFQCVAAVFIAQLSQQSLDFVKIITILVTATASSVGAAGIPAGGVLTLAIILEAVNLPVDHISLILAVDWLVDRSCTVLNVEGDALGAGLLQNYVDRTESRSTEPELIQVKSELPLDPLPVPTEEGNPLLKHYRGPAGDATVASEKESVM
The experiment in a line: flow cytometry on WiDr cells with ASCT2 shRNA or non-target shRNA. Background: Flow cytometry measures light scatter and fluorescence of single cells or particles in a stream.

For assay [1], the target named is T2, cynomolgus monkey ASCT2 (cynomolgus monkey (Macaca fascicularis)) (UniProt G7PXZ3).
T2 sequence: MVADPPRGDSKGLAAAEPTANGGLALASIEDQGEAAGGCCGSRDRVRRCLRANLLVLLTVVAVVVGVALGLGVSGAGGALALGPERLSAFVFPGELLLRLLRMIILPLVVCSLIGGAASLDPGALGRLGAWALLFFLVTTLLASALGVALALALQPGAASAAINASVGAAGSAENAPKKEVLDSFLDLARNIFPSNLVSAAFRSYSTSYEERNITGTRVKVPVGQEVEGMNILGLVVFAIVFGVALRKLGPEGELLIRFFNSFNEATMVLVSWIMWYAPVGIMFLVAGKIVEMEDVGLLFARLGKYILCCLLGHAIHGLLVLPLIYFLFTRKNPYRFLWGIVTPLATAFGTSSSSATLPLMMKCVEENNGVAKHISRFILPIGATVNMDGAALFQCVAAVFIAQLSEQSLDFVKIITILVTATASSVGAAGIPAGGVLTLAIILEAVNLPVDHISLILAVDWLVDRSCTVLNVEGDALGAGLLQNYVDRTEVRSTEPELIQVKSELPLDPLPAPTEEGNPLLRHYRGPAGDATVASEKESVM
Put plainly: flow cytometry on CHO cells expressing CyASCT2.

B1: anti-ASCT2 antibody 1e8 (original) (antibody, V domains shown)
VH: QVQLQQWGAGLLKPSETLSLTCAVYGGSFSGYYWSWIPQPPGKGVEWIGEINHSGSTNYNPSLKSRVTISSDTSKNQFSLKLTSVTAADTAVYYCARGQGKNWNYDYFDYWGQGTLVTVSS
VL: DIQMTQSPSTLSASVGDRVTLTCRASQSIRSWLAWYQQKPGKAPKLLIYKASSLKSGVPSRFSGSGSGTDFTLTISSLQPDDFATYYCQQYYSFSRTFGQGTKVEIK
Turning to B1, the binding entry in the assay with human ASCT2 (SLC1A5) was “binds”.

B2: anti-ASCT2 antibody 17c10 (original, non-germlined; parental 17c10) (antibody, V domains shown)
VH: QVQLQQWGAGLLKPSETLSLTCAVYGGSFSGYYWSWIRQPPGKGLEWIGEIHHSGGANYNPSLKSRVTISVDTSKNQFSLKLTSVTAADTAVYYCARGQGKNWHYDYFDYWGQGTLVTVSS
VL: DIQMTQSPSTLSTSVGDRVTLTCRASQSIRSWLAWYQQNPGKAPKLLIYKASILKIGVPSRFSGSGSGTDFTLTITSLQPDDFATYYCQQYYSYSRTFGQGTKVEIK
For B2, the binding entry in assay [1] is “binds”.

B3: germlined 17c10 antibody (antibody, V domains shown)
VH: QVQLQQWGAGLLKPSETLSLTCAVYGGSFSGYYWSWIRQPPGKGLEWIGEIHHSGGANYNPSLKSRVTISVDTSKNQFSLKLSSVTAADTAVYYCARGQGKNWHYDYFDYWGQGTLVTVSS
VL: DIQMTQSPSTLSASVGDRVTITCRASQSIRSWLAWYQQKPGKAPKLLIYKASILKIGVPSRFSGSGSGTEFTLTISSLQPDDFATYYCQQYYSYSRTFGQGTKVEIK
For B3, the binding entry in assay [1] is “binds”.
